Experimental findings from PMC10434240 are described below.

By UniProt entry, the sequences of proteins in these tests, tags left out.
UniProt P90623: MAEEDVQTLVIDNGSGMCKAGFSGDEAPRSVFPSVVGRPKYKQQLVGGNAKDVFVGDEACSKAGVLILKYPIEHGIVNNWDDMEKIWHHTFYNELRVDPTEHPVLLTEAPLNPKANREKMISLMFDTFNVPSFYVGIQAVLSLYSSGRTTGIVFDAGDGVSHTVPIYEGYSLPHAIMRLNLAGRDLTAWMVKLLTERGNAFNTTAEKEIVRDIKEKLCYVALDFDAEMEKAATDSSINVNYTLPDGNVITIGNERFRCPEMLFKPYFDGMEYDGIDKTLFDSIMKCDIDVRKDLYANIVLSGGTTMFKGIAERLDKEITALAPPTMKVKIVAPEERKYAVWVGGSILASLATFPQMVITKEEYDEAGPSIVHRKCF

No constants are given. Whether binding was seen depends on the method and setting. Binding seen in cells or lysates may run through a third protein. These calls come from enrichment with a bait or labelling near it, and not all partners need be listed. Tags and fused reporters may be left off the sequences shown.

The test addresses HA-TvActin (Trichomonas vaginalis) (UniProt P90623). The test is described as follows: affinity purification with mass spectrometry; HA-TvActin immunoprecipitated with anti-HA agarose beads from lysate of transgenic TH17 trophozoites (1% Triton X-100, 5 mM EDTA in TBS, 4°C overnight); SDS-PAGE, LC-MS/MS, label-free emPAI.

B1: Malic enzyme (enzyme, UniProt A2EAJ8 1-398)
chain: MSVKKDYASLSVAAHKEWRGKIETVARCKVEDKDDLSIAYSPGVAQPCLEIQKNPALSYELTRRWNTVAVITDGTAVLGLGDIGPEAGMPVMEGKALLFKRFGDVDAIPLCVRSKNVDDIVKVVSLIAGSFGGVNLEDISAPRCFEIEKKCQEICDIPIFHDDQHGTAIVTLAALLNALKLVGKKIEDVKIVTSGAGAAGIAIIKLLVAVGVNPKNVILTDRQGAIYKGRSGLNDIKVEMAEITNSELKQGTLGDVIKGVDVFIGVSAPKTLTQEMVKSMAEKPIVFAMANPIPEIMPEEAKEAGAIVVGTGRSDYPNQINNVLAFPALFRGALDVRSSRITNEMNIAAARAIASLVSDAELTPEYILPKPFDPRIKETVSKAVAAAAIKSGVARIQQ
For the molecule B1, the binding entry is “binds”.

B2: Succinate-CoA ligase (ADP-forming) subunit β, mitochondrial (TVAG_259190) (enzyme, UniProt A2EBX0 1-407)
chain: MLSSSFARNFNILEWQSKEICAKYNVAAGINLVARSPEEAAEAFRKMNLPAAVIKAQVYCGGRGKGHWLETGFKSGVHFVKSADEAAKIAKEMLGHHLVTKQTGKDGLLCQAVMLSDPVEVKRELYFAILLDRQTQSPVVIASTEGGVEIEEVAAHHPEKIHKFVLDGVEGITEEVAKNISTKLGLTGKAYDNGVVEMQKLWKLFVGSDATQVEVNPLAETTDGRIITVDSKFNFDDSAHYRQKQIFGYRDLKQVSPFEIRAEKYGLNYVPLDGNVACLVNGAGLAMATMDVIKLAGGDPANFLDLGGAASEAAVTEGFTIISQQSHVKAILVNIFGGIVRCDMVAAGVIAAFKKVGLKVPLVVRLEGTNVEAGKKLIRESGLPIISADNLTDAGEKAVKAAKGEKF
Consider B2, for which the binding result is “binds”.

B3: α-Actinin, putative (protein, UniProt A2DKH3 1-931)
chain: MSVRREGLLDDAWEKTQIKVFSRWVQKQLLARQIQFETIETDFEDGTKLLNLLEIIGKEPMPSKWHKQPKMMVQKRENVDLALKYINEVKKIRTVGIGADDIINKNLKLTLGLTWTCINKFMIEEISVEEATARDALLLWAKKNTQGYEHVAVNNFTTSWNTGLAFAALINKFRPNLLDYSALDYNDHKGACEKAFAACKELGIYVYLDPEDVIDTTPDEKSVVTQVAEFFHFFASESKIAAMADKIKRTVAIQKQIDELKNTYIEDAKAAIEKMTVEDEKLKADDYEKTIPGIRGKLASVISYNRDIRPEIVDHRAKAMRSWAALVTKCKSGNRPIPEIPQGLEPEALTNKFNEIEQTSTTRRDELTQELNDMIKKKVEDFMAKCMDIINKCDAIHEEVKTIEGTTAEKKDKVEQKLHEAEDLQPALAELTPLFQELVELRINTLSSQTDDSVNRHHSQLITYIKHLLEQLNGKLFEETNEARINEYNALAQPLYDEAIAFKEEVLAISGELRERRTQFLAKQAEAPTKREHVNEIDPIFDGLEKDSLHLRVNHSPTEIRNVYAVTLQHIITELNKIFEEMVANFDATAVPIIDGITALVTSSHQIPGDAAAVKAQVEENLASLDGFAEKIQALQDPYNELVEFKLNYKVTYTYSDATGELDQARLDLKQIILAKKTFLEEEERKARINNYTVKADEHMNEAHALDGKINSVDGELEPKRQKLYEVREEVNAKKEKAAEELTPIYEDLEKDQLHLEITSTPASINIFFENLIAHIDTLVKEIDAAIAAAKGLEISEEELNEFKDTFKYFDKDKSNSLEYFELKACLTALGEDITDDQAKEYCKKYNSKGEGTALEFDDYVRFMLDHFSKAETTETTMEAFKAIAQNQPVLTDAQLDQYFSAEDAAYLRSQLKQGENGYEFADWVNSLYNQ
B3: the binding entry is “binds”.

B4: Glyceraldehyde-3-phosphate dehydrogenase (enzyme, UniProt A2EM29 1-361)
chain: MVVKVAINGFGRIGRLVFRACRKLYPKDIKVVAIHDLGDIKTNVYLLKYDTAHRAFPEPVTVDEVKQEFTVGEGADKWVVKSIGGRLGPSQLPWKELGIDVVLESTGIFRTKAQKDAEGKITKDGYDGHLVSGAKKVVLSVPSADEIECTLVLGVNDEDLKPETRCISNASCTTNCLGPVAKTLNNAFGIRNGFMTTVHSYTNDQVVADTMHKDLRRARAAGMNIIPTSTGAAIALPKVCHGLPPKSLDGFALRVPTITGSLVDLTVNVNAKVTKEEVNAALKKATEEGSLKGIMTYVTDPIVSSDIIGCQYSSIVDALSTKVLPNPEGQGTLVKVLSWYDNEWMYSCRCADIFHRLEKYL
Consider B4, for which the binding entry is recorded as “binds”.

B5: Succinate-CoA ligase (ADP-forming) subunit β, mitochondrial (TVAG_144730) (enzyme, UniProt A2FVK7 1-409)
chain: MLSNGSFARNFNILEWQSKEICAKFNVAAGINLVARTPEEAAAAFKKMGLPAAVIKAQVYCGGRGKGHWKETGFKSGVHFVKSADEAAKIAKEMLGHHLVTKQTGADGLLCQAVMLSDPVEVKRELYFAILLDRQTQSPVVIASTEGGVEIEEVAAKHPEKILKFQLDGVEGITRDVAVNISKQLGLTGKAYENGIEEMQKLWKLFVGSDATQVEVNPLAETTDGRIITVDSKFNFDDSAHYRQKQIFGYRDLKQVNPFEIRAEKYGLNYVPLDGNVACLVNGAGLAMATMDVIKLAGGDPANFLDLGGGASEAAVTEGFTIISSQSHVKAILVNIFGGIVRCDMVAAGVIAAFKKVGLKVPLVVRLEGTNVDAGKKLIRESGLPIIPADNLTDAGIKAVKAANGEKLI
For B5, the binding entry is recorded as “binds”.

B6: Pyrophosphate-fructose 6-phosphate 1-phosphotransferase 2 (enzyme, UniProt A2E9H3 1-426)
chain: MSTEAPVLGILCGGGPAPGLNGVIAGATLYALRLGWKVIGFMEGFKYLCTGDIETVKAHTIDLTYDIVSRIHFQGGTIIQTSRANPRKSTELQENVRKCLRALKVRYFLTIGGDDTASSAVSVAQGMDGNEISVISCPKTIDNDLPLPADQSTFGFHTARSLGMEIIRNLMVDSKSAPRWFLVEAMGRSAGHLALGMAEASGAHLCLIPEEFKQDEIEFEDVVELVEATILKRLAYGKNYGVCVLAEGLVSKMSKKALYRLFGNREPPTDPHGHILLDDAELARSLSEELLKRLGNLGIRITPKKIGYELRCADPVAFDAVYTRELGYGAIDAFLNGHSAALIVRENGQVKPVQFKDLLDPATGRVRTRLVDVTSQSFKVARVYMWRMSKKDYENKDLVARVAAAGKMTPEAFTEKFAHLTDVVIE
Consider B6, for which the binding result is reported as “binds”.

B7: 6-Phosphofructokinase (TVAG_496160) (enzyme, UniProt A2FR66 1-324)
chain: MKNIAILSSGSDNSGINSAIRAVVRSARHAKVHVYGVNYGYIGLRDDSMKIITSRDVSGQMGKAGCFLGTGRPENLFDDDASFKKMLSNIEKKKIEGLVVIGGYTSLTQSKKFVDAGIPTVAIPSTIQDDIVGTDICLGVDSAVNNIVKNVERIRSCESTMDRTFLIRCEGETCGSLALRAGLVSGADLILTPEQECKDINVIVDKLQKVYQSGKTQCICLISRGWKPGCEALAEYLSKHENETDLSVRETIFGYVQRGGAPTGFDRLMGTNMGALAFQTLTSGQTAKMTALSDGQYTIVPYEAFLDQQKKLDPKMLELFDLTK
With B7, the binding entry is given as “binds”.

B8: T. vaginalis F-actin capping protein subunit α (TvFACPα), endogenous (protein, UniProt A2FE30 1-261)
chain: MSESENIKIIKTFLANAPPGEYEQCTAALRSIVNDEDLINRARSETLKTWAEEECIVVDVEDHKVIICKEACQRDGIYVDPVTSSLITYDFESRIATPIGDQANMSDFAKELQEELTAYAKNAYKENAAAGVYDTNNGIVIVLRGSSISLKNFRTGKTVAKYTLSKSGSLEGKIVSIQHFFEKGNAVCQHDGDCNTTCSFGDAKSVVKAIRTFEDEWLADYKTTLEKIGTNVLFQLRRKFPYSKQKINWQQEITVGGGMKC
For the molecule B8, the binding result was “binds”.

B9: 6-Phosphofructokinase (TVAG_293770) (enzyme, UniProt A2FKA7 1-326)
chain: MSLKNIAVLTSGGDNAGLNAAVRAITRVGIARNVNVYGVLRGYRGLVEGQIFELNSRAVSGKMGLGGTFIGTARLPEWKDPKVRREAIRNMNRHDIGGLIVIGGNGSLSGASLLAKDGFPVIGMPGSIDDDVMGTEVCVGVDTALNIIIEAIDRIRDCASSIQRAFVIEVMGRDSGALALMSAAATGAEVCLVPEIPSPPMEKIADAITNAYTKGKPYAIIVVAEGWKPGINKLVEFLNSKQDETGFDVRTTVLGYTQRGGSPSYIDRYYGTAMGAFAVDSLLAGETNKFVAVQNGKPCLQPLDTLVGKLKPLNKNLLDLYNKLDN
On to B9, for which the binding result is on record as “binds”.

B10: α-1,4-Glucan phosphorylase (enzyme, UniProt A2DSX4 1-944)
chain: MSKQAQKLHPTIRPFYPDAKPIPTEAKNASLNTLSHKVQESQGEDLEQARHNLLWKLMGEYIPAEKDSVQLSFVNHMEYTLARSRFNLDAFSSYLAVSYSVRDRLIELFNDTQEYFISSKAKQVYYVSAEFLVGRFLRNALLNLELEDLYRKSLAELDVSLDQIYNEEYDPGLGNGGLGRLAACFMDSLATLNLPGWGYGLMYSFGMFKQIIGADGSQLEIPDYWLNFGDPWRIQKPTVCHQVHFYGRCENGVWKPSLTINAVANDFLIPGFGTDNTLALRLWSSKPTVELDEEKFRGGDYFQAITMKQRCENLTSVLYPNDNTYEGKEMRLMQEYFMSSASLQDIIRRLKTHQKQDIRQLPKYAAIQLNDTHPTVMVAECLRILMDEEDMGLLEALEITRKVFSYTCHTLMPEALEKWDVPMFQNMLPRHLEIIYQLNQYYLDDVRAKYHVTDDVIRNLSIIEESNPKKVRMANLAVIGSHMVNGVAAIHSELMKIYVFKDFAQLEPKKFINKTNGVTIRRWLHHCNPGLSQIINRVVGDEKWALNAEGLTALTKKQDDPNFIAEWEAVKLANKQHLAELVKKTTGVELNPEKQLFDIQVKRIHEYKRQQLNIFSIIYRYLNILEMTPAERAKLVPRAMIFGGKAAPGYYAAKKLIKLINNVAKVVNADKNIGDLLKVVYIPNYNVSAAEIIIPGTDVCEQISTAGTEASGTSNMKFAFNGGLIIGTHDGANIEIGDAIGNENVFFFGEVAENVDTYRAAAEHPIPAGLRRVFDTIRTGLFGDVNEYECLIYPVEHGDNYLVAKDFEDYLDAQRRCDEAYKNKEEWTKMSIASTANMARFSSDRTITEYANEVWGIHECKLPVVEPIEASGVQQMGVGSIGGSLRRHQSAAFAEQAPSSNGPTLSKGTYGSLSRKSQIPVPAAQPVQDSKNDDHDGEIEIDYN
For the molecule B10, the binding entry is “binds”.

B11: T-complex protein 1 subunit delta (protein, UniProt A2DS85 1-536)
chain: MSQQSAPAASATNPPAFQGQDRPTDVRMSCILAAKSVADAVRSSLGPRGMDKLIQEKNGEVIITNDGATILKHMGAAHPAAKLMVSMSQAQDVAAGDGTTSVVIFAGAFLSACKTLLERKLHPSLVSDALRIATDEAIKILDQMRIPFGQGEAFTEQEREILIDSARTSLSSKLASQWSDILAPLAVDAVLRVHDGKHVDLNDIRVVQRVGGVIDDSELVDGVVFPHHFQRQSGDARKINNAKIALIQFQISPPKTDMESQVILNDYAQMDRVQREQRKYILNIVNAIAKTGANVILLQKSVLRDAISDTALHFLNKKGIIVVKDIDREEVDFVCRTIGCQPIASVEGLSADKLGFAETVEEVTTAGGAIIKIMGLKKVSKTVTVLLRGSNELIIGEAERSLHDALCVIRSLVYERYLLPGGGAPEVELAIKLAKKADEIGGEIGHCIRAFADSLDIVPYTLAENAGLAPLDVVTQLREAHSSGKMYYGVSVVACGPADMKEEEVLQPYLVTKSAVTFASETVRMILKVDDILATR
As for B11, the binding result was “binds”.

B12: 6-Phosphofructokinase (TVAG_462920) (enzyme, UniProt A2DM03 1-324)
chain: MKSIGILTSGGDSAGLNAIVRSATRYGIEKGLKVYGINRGYLGLVDGKIFELNSRSVSGKLGLGGTFIGTARLPSWKEPKVRREAIRTLNRFSIDGLIVVGGNGSLAGANLLQKDGFPVIGLPGSIDDDVYGTDVCIGVDTALNIIIEAIERIRDCASSIQRAFVVEVMGRDSGALALMAAAAAGAEVCLVPEGKNPSMEEIAKTITQAYTRGKPHAIIVVAEGWKPGTKALIDYLKSIEDQTGFDVRTTVLGYTQRGGAPSYRDRYYGTIMGMAAVDALLAGESGKMVGIKDEKVNLVPFEDLVGKLKPLNEDLYKLYKQLEQ
B12: the binding result is “binds”.
